Measured values reported in publication PMC4356144, “The kinase LYK5 is a major chitin receptor in Arabidopsis and forms a chitin-induced complex with related kinase CERK1” (eLife, 2014).
These are yes or no findings as the source states them, for the method shown. For some of these results: Binding seen in cells or lysates may run through a third protein. Some results given as binding are weak or reduced against the parent protein; the word gives no strength. Sequences can lack the tags named with a protein.

Columns and labels:
[1] = target: T1, AtLYK4-Myc (Myc-tagged AtLYK4) (Arabidopsis thaliana) (UniProt O64825); test: co-IP; HA- and Myc-tagged proteins co-expressed in Arabidopsis protoplasts (Col-0; for AtLYK5 with itself also Atcerk1 mutant); with or without 1 µM chitooctaose or other chitin oligomers (15 min); IP with anti-Myc antibody; lysis in 50 mM Tris pH 7.6, 150 mM NaCl, 0.5% Triton X-100
T1 sequence: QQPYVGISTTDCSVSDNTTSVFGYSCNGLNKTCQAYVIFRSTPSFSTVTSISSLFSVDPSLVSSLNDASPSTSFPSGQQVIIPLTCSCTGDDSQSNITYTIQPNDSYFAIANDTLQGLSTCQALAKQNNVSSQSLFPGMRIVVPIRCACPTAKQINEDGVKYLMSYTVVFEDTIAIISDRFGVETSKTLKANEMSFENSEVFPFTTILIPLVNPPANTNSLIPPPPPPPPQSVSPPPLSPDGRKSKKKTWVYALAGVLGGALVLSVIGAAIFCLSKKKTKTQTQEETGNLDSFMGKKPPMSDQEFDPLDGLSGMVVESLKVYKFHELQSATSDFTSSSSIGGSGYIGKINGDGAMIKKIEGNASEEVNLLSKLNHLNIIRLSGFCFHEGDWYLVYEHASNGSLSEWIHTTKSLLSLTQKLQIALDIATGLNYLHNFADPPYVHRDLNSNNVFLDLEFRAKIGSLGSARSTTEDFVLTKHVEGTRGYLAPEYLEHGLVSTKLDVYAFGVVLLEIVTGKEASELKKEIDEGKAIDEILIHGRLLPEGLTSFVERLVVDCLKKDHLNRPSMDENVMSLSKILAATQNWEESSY

[2] = target: AtLYK5-Myc (Myc-tagged AtLYK5) (Arabidopsis thaliana) (UniProt O22808); test: as above
[3] = target: T2, AtCERK1 (endogenous, precipitated with anti-AtCERK1 antibody) (Arabidopsis thaliana (endogenous in Arabidopsis plants)) (UniProt A8R7E6); test: co-IP; IP with anti-AtCERK1 antibody from transgenic Arabidopsis Atlyk5-2 plants expressing AtLYK5, AtLYK5 K395E or AtLYK5 ΔKD; tissue harvested before or 15 min after 1 µM chitooctaose
T2 sequence: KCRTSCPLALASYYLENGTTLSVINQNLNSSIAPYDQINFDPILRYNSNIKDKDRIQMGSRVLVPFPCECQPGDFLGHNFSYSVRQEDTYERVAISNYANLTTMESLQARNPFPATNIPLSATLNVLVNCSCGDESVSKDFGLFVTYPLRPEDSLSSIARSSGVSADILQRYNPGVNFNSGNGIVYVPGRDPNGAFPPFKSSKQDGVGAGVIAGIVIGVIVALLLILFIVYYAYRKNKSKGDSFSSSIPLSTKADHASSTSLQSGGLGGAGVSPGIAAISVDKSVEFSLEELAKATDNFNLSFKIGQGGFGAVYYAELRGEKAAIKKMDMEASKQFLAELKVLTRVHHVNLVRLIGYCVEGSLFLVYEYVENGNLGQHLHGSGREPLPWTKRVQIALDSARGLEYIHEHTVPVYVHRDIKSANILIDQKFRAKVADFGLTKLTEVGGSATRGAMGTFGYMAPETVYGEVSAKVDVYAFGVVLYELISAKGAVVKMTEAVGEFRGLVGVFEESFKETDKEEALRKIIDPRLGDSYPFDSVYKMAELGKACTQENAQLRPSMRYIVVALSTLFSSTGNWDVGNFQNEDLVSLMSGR

[4] = target: AtLYK5-HA (full length AtLYK5 under its native promoter in Atlyk5-2 mutant plants) (Arabidopsis thaliana) (UniProt O22808); test: SDS-PAGE with reducing agent and immunoblot; crude protein of transgenic Arabidopsis expressing AtLYK5-HA in Atlyk5-2, boiled 5 min after adding 50 mM DTT; anti-HA blot

B1: AtCERK1-HA (HA-tagged AtCERK1, chitin elicitor receptor kinase 1) (receptor, UniProt A8R7E6 24-617)
chain: KCRTSCPLALASYYLENGTTLSVINQNLNSSIAPYDQINFDPILRYNSNIKDKDRIQMGSRVLVPFPCECQPGDFLGHNFSYSVRQEDTYERVAISNYANLTTMESLQARNPFPATNIPLSATLNVLVNCSCGDESVSKDFGLFVTYPLRPEDSLSSIARSSGVSADILQRYNPGVNFNSGNGIVYVPGRDPNGAFPPFKSSKQDGVGAGVIAGIVIGVIVALLLILFIVYYAYRKNKSKGDSFSSSIPLSTKADHASSTSLQSGGLGGAGVSPGIAAISVDKSVEFSLEELAKATDNFNLSFKIGQGGFGAVYYAELRGEKAAIKKMDMEASKQFLAELKVLTRVHHVNLVRLIGYCVEGSLFLVYEYVENGNLGQHLHGSGREPLPWTKRVQIALDSARGLEYIHEHTVPVYVHRDIKSANILIDQKFRAKVADFGLTKLTEVGGSATRGAMGTFGYMAPETVYGEVSAKVDVYAFGVVLYELISAKGAVVKMTEAVGEFRGLVGVFEESFKETDKEEALRKIIDPRLGDSYPFDSVYKMAELGKACTQENAQLRPSMRYIVVALSTLFSSTGNWDVGNFQNEDLVSLMSGR
- binding [1]: binds

B2: AtLYK5-Myc (Myc-tagged AtLYK5) (receptor, UniProt O22808 27-664)
chain: QQPYVNNHQLACEVRVYDNITNGFTCNGPPSCRSYLTFWSQPPYNTADSIAKLLNVSAAEIQSINNLPTATTRIPTRELVVIPANCSCSSSSGGFYQHNATYNLSGNRGDETYFSVANDTYQALSTCQAMMSQNRYGERQLTPGLNLLVPLRCACPTAKQTTAGFKYLLTYLVAMGDSISGIAEMFNSTSAAITEGNELTSDNIFFFTPVLVPLTTEPTKIVISPSPPPPPVVATPPQTPVDPPGSSSSHKWIYIGIGIGAGLLLLLSILALCFYKRRSKKKSLPSSLPEENKLFDSSTKQSIPTTTTTQWSIDLSNSSEAFGLKSAIESLTLYRFNDLQSATSNFSDENRIKGSVYRATINGDDAAVKVIKGDVSSSEINLLKKLNHSNIIRLSGFCIREGTSYLVFEYSENGSISDWLHSSGKKSLTWKQRVEIARDVAEALDYLHNYITPPHIHKNLESTNILLDSNFRAKIANFGVARILDEGDLDLQLTRHVEGTQGYLAPEYVENGVITSKLDVFAFGVAVLELLSGREAVTIHKKKEGEEEVEMLCKVINSVLGGENVREKLKEFMDPSLGNEYPLELAYTMAQLAKSCVATDLNSRPSVTQVLTTLSMIVSSSIDWEPSDDLLRSGSLGN
- binding [2]: binds

B3: AtLYK5^ΔKD (1–320 aa, deletion of kinase domain) with a C-terminal HA tag (domain or fragment, UniProt O22808 27-320)
chain: QQPYVNNHQLACEVRVYDNITNGFTCNGPPSCRSYLTFWSQPPYNTADSIAKLLNVSAAEIQSINNLPTATTRIPTRELVVIPANCSCSSSSGGFYQHNATYNLSGNRGDETYFSVANDTYQALSTCQAMMSQNRYGERQLTPGLNLLVPLRCACPTAKQTTAGFKYLLTYLVAMGDSISGIAEMFNSTSAAITEGNELTSDNIFFFTPVLVPLTTEPTKIVISPSPPPPPVVATPPQTPVDPPGSSSSHKWIYIGIGIGAGLLLLLSILALCFYKRRSKKKSLPSSLPEENKL
- binding [3]: no binding

B4: AtLYK5-HA (full length AtLYK5 under its native promoter in Atlyk5-2 mutant plants) (receptor, Arabidopsis thaliana, UniProt O22808 27-664, looked up)
chain: QQPYVNNHQLACEVRVYDNITNGFTCNGPPSCRSYLTFWSQPPYNTADSIAKLLNVSAAEIQSINNLPTATTRIPTRELVVIPANCSCSSSSGGFYQHNATYNLSGNRGDETYFSVANDTYQALSTCQAMMSQNRYGERQLTPGLNLLVPLRCACPTAKQTTAGFKYLLTYLVAMGDSISGIAEMFNSTSAAITEGNELTSDNIFFFTPVLVPLTTEPTKIVISPSPPPPPVVATPPQTPVDPPGSSSSHKWIYIGIGIGAGLLLLLSILALCFYKRRSKKKSLPSSLPEENKLFDSSTKQSIPTTTTTQWSIDLSNSSEAFGLKSAIESLTLYRFNDLQSATSNFSDENRIKGSVYRATINGDDAAVKVIKGDVSSSEINLLKKLNHSNIIRLSGFCIREGTSYLVFEYSENGSISDWLHSSGKKSLTWKQRVEIARDVAEALDYLHNYITPPHIHKNLESTNILLDSNFRAKIANFGVARILDEGDLDLQLTRHVEGTQGYLAPEYVENGVITSKLDVFAFGVAVLELLSGREAVTIHKKKEGEEEVEMLCKVINSVLGGENVREKLKEFMDPSLGNEYPLELAYTMAQLAKSCVATDLNSRPSVTQVLTTLSMIVSSSIDWEPSDDLLRSGSLGN
notes: AtLYK5 (At2g33580), Arabidopsis thaliana; genomic fragment with the 1.8 kb promoter and the coding region up to the stop codon, in pGWB13; also called wild-type AtLYK5; source: transgenic Arabidopsis (Atlyk5-2 background, native promoter), in crude extract or lysate
- binding [4]: no binding (condition: boiled with 50 mM DTT)
